Experimental data: patent US10456407B2, “Combination therapy for treating cancer” (Epizyme, Inc., priority 2015, dated 2019)
Like-named read-outs stand apart in the source and are kept apart here.

What was measured:
Assay in all cases: cells
[1] = test system: OCI-Ly19 cells; conditions: Homo sapiens
[2] = test system: RL cells; conditions: Homo sapiens, 96 h, read-out: 4 Day Cpd44 IC50, Cpd44 Co-treatment
[3] = test system: DOHH2 cells; conditions: Homo sapiens
[4] = test system: SU-DHL10 cells; conditions: Homo sapiens
[5] = test system: WSU-DLCL2 cells; conditions: Homo sapiens
[6] = test system: SU-DHL4 cells; conditions: Homo sapiens

SMILES: CCN(c1cc(-c2ccc(CN3CCOCC3)cc2)cc(C(=O)NCc2c(C)cc(C)[nH]c2=O)c1C)C1CCOCC1 [Compound 44]
- IC50 ([1]; OCI-LY19, 96 h, read-out: 4 Day Cpd44 IC50, Cpd44 Co-treatment, OCI-Ly19 (WT), 4 day co-treatment with fixed concentration of prednisolone): 190 nM
- IC50 ([1]; OCI-LY19, read-out: 7 Day Cpd44 IC50, 4 d Cpd44 Pre/3 d Co-treat, OCI-Ly19 (WT), 4 d Compound 44 pre-treatment, 3 d co-treatment with prednisolone): 5.5 nM
- IC50 [2]: 9.6 nM
- IC50 ([3]; DOHH-2, 96 h, read-out: 4 Day Cpd44 IC50, Cpd44 Co-treatment, DOHH2 (WT), 4 day co-treatment with fixed concentration of prednisolone): 200 nM
- IC50 ([3]; DOHH-2, […], read-out: 7 Day Cpd44 IC50, 7 d Co-treatment, DOHH2 (WT), 7 day co-treatment with prednisolone): 340 nM
- IC50 ([4]; SU-DHL10, 96 h, read-out: 4 Day Cpd44 IC50, Cpd44 Alone): 640 nM
- IC50 ([4]; SU-DHL10, 96 h, read-out: 4 Day Cpd44 IC50, Cpd44 Co-treatment): 9.2 nM
- IC50 ([4]; SU-DHL10, […], read-out: 7 Day Cpd44 IC50, 7 d Co-treatment): 20 nM
- IC50 ([4]; SU-DHL10, read-out: 7 Day Cpd44 IC50, 4 d Pred Pre/3 d Co-treat, SU-DHL10 (Y646-Sens), 4 d prednisolone pre-treatment, 3 d co-treatment): 520 nM
- IC50 ([5]; WSUDLCL2, 96 h, read-out: 4 Day Cpd44 IC50, Cpd44 Alone): 530 nM
- IC50 ([5]; WSUDLCL2, 96 h, read-out: 4 Day Cpd44 IC50, Cpd44 Co-treatment): 20 nM
- IC50 ([5]; WSUDLCL2, […], read-out: 7 Day Cpd44 IC50, 7 d Co-treatment): 14 nM
- IC50 ([6]; SU-DHL-4, […], read-out: 7 Day Cpd44 IC50, 7 d Co-treatment, SU-DHL4 (Y646-Res), 7 day co-treatment with prednisolone): 510 nM
- IC50 ([6]; SU-DHL-4, read-out: 7 Day Cpd44 IC50, 4 d Cpd44 Pre/3 d Co-treat, SU-DHL4 (Y646-Res), 4 d Compound 44 pre-treatment, 3 d co-treatment with prednisolone): 35 nM
